Our source for the binding values is paper PMC6705879.

One assay concerns the target T1, HA-tagged 90K (UniProt Q08380).
T1 sequence: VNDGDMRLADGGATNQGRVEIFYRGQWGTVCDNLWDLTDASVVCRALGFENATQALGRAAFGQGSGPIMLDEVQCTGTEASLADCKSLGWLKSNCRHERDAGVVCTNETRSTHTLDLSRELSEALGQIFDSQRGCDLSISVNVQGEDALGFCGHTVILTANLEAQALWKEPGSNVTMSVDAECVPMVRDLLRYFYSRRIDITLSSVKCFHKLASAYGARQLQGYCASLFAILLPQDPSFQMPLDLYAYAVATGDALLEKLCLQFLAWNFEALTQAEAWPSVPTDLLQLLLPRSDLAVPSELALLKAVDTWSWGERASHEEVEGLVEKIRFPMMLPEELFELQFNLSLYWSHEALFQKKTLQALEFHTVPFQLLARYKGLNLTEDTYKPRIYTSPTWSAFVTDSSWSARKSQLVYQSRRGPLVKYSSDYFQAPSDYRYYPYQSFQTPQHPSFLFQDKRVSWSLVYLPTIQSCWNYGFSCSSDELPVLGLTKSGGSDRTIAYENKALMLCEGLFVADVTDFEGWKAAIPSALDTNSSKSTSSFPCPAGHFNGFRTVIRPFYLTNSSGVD
Nature of the assay: co-IP; 293T cells transfected with the indicated plasmids for 48 hours; Nonidet P-40 lysis buffer (150 mM NaCl, 1 mM EDTA, 1% Nonidet P-40); antibody 4 h at 4 °C, protein A/G agarose; washed three times with lysis buffer containing 500 mM NaCl.

For a further assay, the target named is T2, Flag-tagged TAK1 (UniProt O43318).
T2 sequence: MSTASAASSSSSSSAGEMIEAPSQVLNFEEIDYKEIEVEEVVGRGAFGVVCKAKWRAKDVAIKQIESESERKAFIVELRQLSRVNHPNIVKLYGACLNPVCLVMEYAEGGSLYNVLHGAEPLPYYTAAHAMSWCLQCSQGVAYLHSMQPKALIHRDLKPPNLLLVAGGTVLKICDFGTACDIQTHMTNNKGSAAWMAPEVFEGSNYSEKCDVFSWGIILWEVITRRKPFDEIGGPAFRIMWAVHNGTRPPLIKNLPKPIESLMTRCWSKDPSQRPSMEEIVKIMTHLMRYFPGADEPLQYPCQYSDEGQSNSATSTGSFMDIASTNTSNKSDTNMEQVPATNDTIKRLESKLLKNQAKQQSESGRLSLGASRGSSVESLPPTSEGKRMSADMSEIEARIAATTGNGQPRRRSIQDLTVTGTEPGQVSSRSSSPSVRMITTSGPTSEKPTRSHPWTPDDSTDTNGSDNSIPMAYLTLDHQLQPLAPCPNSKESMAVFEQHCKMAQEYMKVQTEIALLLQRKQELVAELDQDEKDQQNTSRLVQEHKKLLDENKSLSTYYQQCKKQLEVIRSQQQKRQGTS
Described as above.

Another assay addresses T3, HA-tagged TBK1 (UniProt Q9UHD2).
T3 sequence: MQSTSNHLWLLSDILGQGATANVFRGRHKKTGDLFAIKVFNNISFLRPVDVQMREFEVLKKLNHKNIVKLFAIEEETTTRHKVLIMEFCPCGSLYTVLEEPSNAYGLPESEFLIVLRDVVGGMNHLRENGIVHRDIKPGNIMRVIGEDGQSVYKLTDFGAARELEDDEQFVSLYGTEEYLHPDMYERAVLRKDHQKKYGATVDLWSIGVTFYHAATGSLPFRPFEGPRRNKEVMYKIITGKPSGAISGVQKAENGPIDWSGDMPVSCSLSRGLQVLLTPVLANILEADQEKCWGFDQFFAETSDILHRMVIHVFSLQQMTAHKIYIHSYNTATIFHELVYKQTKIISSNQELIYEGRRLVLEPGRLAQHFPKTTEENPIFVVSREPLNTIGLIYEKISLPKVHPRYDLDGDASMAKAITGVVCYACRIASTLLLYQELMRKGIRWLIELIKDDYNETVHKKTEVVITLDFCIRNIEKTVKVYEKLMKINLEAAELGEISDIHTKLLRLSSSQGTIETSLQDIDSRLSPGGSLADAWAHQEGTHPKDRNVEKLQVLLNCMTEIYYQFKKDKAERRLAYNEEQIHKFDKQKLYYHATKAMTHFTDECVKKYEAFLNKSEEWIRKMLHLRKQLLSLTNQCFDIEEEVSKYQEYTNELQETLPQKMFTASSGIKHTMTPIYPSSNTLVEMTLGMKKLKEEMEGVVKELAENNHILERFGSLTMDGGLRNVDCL
Described as above.

Assay [1] has as its target T4, TAK1 (transfected, tag not given) (UniProt O43318).
T4 sequence: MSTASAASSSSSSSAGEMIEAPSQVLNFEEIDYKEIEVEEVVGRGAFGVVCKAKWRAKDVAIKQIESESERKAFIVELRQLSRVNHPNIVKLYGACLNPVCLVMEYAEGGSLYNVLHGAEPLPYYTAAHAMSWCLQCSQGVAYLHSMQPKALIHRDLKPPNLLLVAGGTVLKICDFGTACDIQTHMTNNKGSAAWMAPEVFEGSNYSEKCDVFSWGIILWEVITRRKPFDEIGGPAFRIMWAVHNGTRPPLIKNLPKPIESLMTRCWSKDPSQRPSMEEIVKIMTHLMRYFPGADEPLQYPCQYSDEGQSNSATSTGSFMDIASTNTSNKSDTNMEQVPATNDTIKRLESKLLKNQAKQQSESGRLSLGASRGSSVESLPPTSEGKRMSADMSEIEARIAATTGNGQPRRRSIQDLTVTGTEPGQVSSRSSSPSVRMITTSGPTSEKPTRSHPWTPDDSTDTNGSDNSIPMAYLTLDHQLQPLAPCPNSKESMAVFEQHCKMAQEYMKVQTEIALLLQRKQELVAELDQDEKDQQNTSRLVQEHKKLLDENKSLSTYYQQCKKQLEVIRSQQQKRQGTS
The assay is described as above.

For assay [2], the target named is T5, TAK1 (endogenous) (human (endogenous in A549 and 293T)) (UniProt O43318).
T5 sequence: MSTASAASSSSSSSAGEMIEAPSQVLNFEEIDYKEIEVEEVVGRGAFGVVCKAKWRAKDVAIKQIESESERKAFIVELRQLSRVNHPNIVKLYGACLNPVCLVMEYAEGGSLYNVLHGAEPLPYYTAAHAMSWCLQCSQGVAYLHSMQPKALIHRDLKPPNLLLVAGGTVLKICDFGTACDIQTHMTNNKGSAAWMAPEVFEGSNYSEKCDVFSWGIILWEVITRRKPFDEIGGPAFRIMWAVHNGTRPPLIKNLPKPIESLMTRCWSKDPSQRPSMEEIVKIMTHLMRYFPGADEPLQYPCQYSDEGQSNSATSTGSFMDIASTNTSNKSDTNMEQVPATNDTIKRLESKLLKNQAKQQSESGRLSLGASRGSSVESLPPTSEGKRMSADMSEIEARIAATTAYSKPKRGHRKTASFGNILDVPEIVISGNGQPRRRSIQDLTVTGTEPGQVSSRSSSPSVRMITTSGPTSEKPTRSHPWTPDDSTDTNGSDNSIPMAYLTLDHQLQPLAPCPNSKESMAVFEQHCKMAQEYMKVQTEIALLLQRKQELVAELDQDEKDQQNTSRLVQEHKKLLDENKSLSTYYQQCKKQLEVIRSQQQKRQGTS
Description: co-IP; endogenous proteins of A549 cells, infected with SeV for the indicated times or left uninfected; Nonidet P-40 lysis buffer, protein A/G agarose, washes with 500 mM NaCl.

These are yes or no findings as the source states them, for the method shown. In cells and extracts the contact can be indirect. Some binding calls cover weakened binding; strength is not graded here. For some assays here: Sequences can lack the tags named with a protein.

B1: TAK1 (transfected, tag not stated in the text) (protein, UniProt O43318-2 1-579)
chain: MSTASAASSSSSSSAGEMIEAPSQVLNFEEIDYKEIEVEEVVGRGAFGVVCKAKWRAKDVAIKQIESESERKAFIVELRQLSRVNHPNIVKLYGACLNPVCLVMEYAEGGSLYNVLHGAEPLPYYTAAHAMSWCLQCSQGVAYLHSMQPKALIHRDLKPPNLLLVAGGTVLKICDFGTACDIQTHMTNNKGSAAWMAPEVFEGSNYSEKCDVFSWGIILWEVITRRKPFDEIGGPAFRIMWAVHNGTRPPLIKNLPKPIESLMTRCWSKDPSQRPSMEEIVKIMTHLMRYFPGADEPLQYPCQYSDEGQSNSATSTGSFMDIASTNTSNKSDTNMEQVPATNDTIKRLESKLLKNQAKQQSESGRLSLGASRGSSVESLPPTSEGKRMSADMSEIEARIAATTGNGQPRRRSIQDLTVTGTEPGQVSSRSSSPSVRMITTSGPTSEKPTRSHPWTPDDSTDTNGSDNSIPMAYLTLDHQLQPLAPCPNSKESMAVFEQHCKMAQEYMKVQTEIALLLQRKQELVAELDQDEKDQQNTSRLVQEHKKLLDENKSLSTYYQQCKKQLEVIRSQQQKRQGTS
Regarding B1, the binding result with HA-tagged 90K is on record as “binds”.

B2: Myc-tagged 90K (galectin 3 binding protein, LGALS3BP) (protein, UniProt Q08380 19-585)
chain: VNDGDMRLADGGATNQGRVEIFYRGQWGTVCDNLWDLTDASVVCRALGFENATQALGRAAFGQGSGPIMLDEVQCTGTEASLADCKSLGWLKSNCRHERDAGVVCTNETRSTHTLDLSRELSEALGQIFDSQRGCDLSISVNVQGEDALGFCGHTVILTANLEAQALWKEPGSNVTMSVDAECVPMVRDLLRYFYSRRIDITLSSVKCFHKLASAYGARQLQGYCASLFAILLPQDPSFQMPLDLYAYAVATGDALLEKLCLQFLAWNFEALTQAEAWPSVPTDLLQLLLPRSDLAVPSELALLKAVDTWSWGERASHEEVEGLVEKIRFPMMLPEELFELQFNLSLYWSHEALFQKKTLQALEFHTVPFQLLARYKGLNLTEDTYKPRIYTSPTWSAFVTDSSWSARKSQLVYQSRRGPLVKYSSDYFQAPSDYRYYPYQSFQTPQHPSFLFQDKRVSWSLVYLPTIQSCWNYGFSCSSDELPVLGLTKSGGSDRTIAYENKALMLCEGLFVADVTDFEGWKAAIPSALDTNSSKSTSSFPCPAGHFNGFRTVIRPFYLTNSSGVD
For B2, the binding entry in the assay with Flag-tagged TAK1 and in the assay with HA-tagged TBK1 was “binds” each time.

B3: HA-tagged 90K (protein, UniProt Q08380 19-585)
chain: VNDGDMRLADGGATNQGRVEIFYRGQWGTVCDNLWDLTDASVVCRALGFENATQALGRAAFGQGSGPIMLDEVQCTGTEASLADCKSLGWLKSNCRHERDAGVVCTNETRSTHTLDLSRELSEALGQIFDSQRGCDLSISVNVQGEDALGFCGHTVILTANLEAQALWKEPGSNVTMSVDAECVPMVRDLLRYFYSRRIDITLSSVKCFHKLASAYGARQLQGYCASLFAILLPQDPSFQMPLDLYAYAVATGDALLEKLCLQFLAWNFEALTQAEAWPSVPTDLLQLLLPRSDLAVPSELALLKAVDTWSWGERASHEEVEGLVEKIRFPMMLPEELFELQFNLSLYWSHEALFQKKTLQALEFHTVPFQLLARYKGLNLTEDTYKPRIYTSPTWSAFVTDSSWSARKSQLVYQSRRGPLVKYSSDYFQAPSDYRYYPYQSFQTPQHPSFLFQDKRVSWSLVYLPTIQSCWNYGFSCSSDELPVLGLTKSGGSDRTIAYENKALMLCEGLFVADVTDFEGWKAAIPSALDTNSSKSTSSFPCPAGHFNGFRTVIRPFYLTNSSGVD
For the molecule B3, in assay [1], the binding entry is “binds”.

B4: 90K (endogenous) (protein, UniProt Q08380 19-585)
chain: VNDGDMRLADGGATNQGRVEIFYRGQWGTVCDNLWDLTDASVVCRALGFENATQALGRAAFGQGSGPIMLDEVQCTGTEASLADCKSLGWLKSNCRHERDAGVVCTNETRSTHTLDLSRELSEALGQIFDSQRGCDLSISVNVQGEDALGFCGHTVILTANLEAQALWKEPGSNVTMSVDAECVPMVRDLLRYFYSRRIDITLSSVKCFHKLASAYGARQLQGYCASLFAILLPQDPSFQMPLDLYAYAVATGDALLEKLCLQFLAWNFEALTQAEAWPSVPTDLLQLLLPRSDLAVPSELALLKAVDTWSWGERASHEEVEGLVEKIRFPMMLPEELFELQFNLSLYWSHEALFQKKTLQALEFHTVPFQLLARYKGLNLTEDTYKPRIYTSPTWSAFVTDSSWSARKSQLVYQSRRGPLVKYSSDYFQAPSDYRYYPYQSFQTPQHPSFLFQDKRVSWSLVYLPTIQSCWNYGFSCSSDELPVLGLTKSGGSDRTIAYENKALMLCEGLFVADVTDFEGWKAAIPSALDTNSSKSTSSFPCPAGHFNGFRTVIRPFYLTNSSGVD
For the molecule B4, the binding result in assay [2] is “binds”.
